The record followed here is PubChem BioAssay AID1487 (National Center for Advancing Translational Sciences (NCATS), 2009).

The experiment is described as follows: qHTS Assay for Modulators of Lamin A Splicing. The conditions noted are these: HeLa LMNA splicing GFP/RFP minigene ratio, 48 h. In outline:
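Read-out is the ratio of GFP to DsRed2 object intensity, acquired by 488 nm laser-scanning cytometry on HeLa lamin A-EGFP minigene reporter cells. Compound incubation 48 hrs at 37 °C in Opti-MEM with 2% FBS; DMSO 0.5% final.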

Where [1] appears, read: measured here: RFP viability control channel.
The mark [2] stands for this setting: measured here: GFP splicing reporter channel.

Each structure is given as a SMILES string. Several values for one entry are separate records, joined by “and”; a condition that tells them apart may be missing. Identical values can stand only once. The list shows a part of the results. Shown are side measurements of this screen, not its main read-out; they come without a call. Compounds called inactive in the main read-out are mostly missing here. Words in brackets tell the shape of the fitted curve; partial curves, single points and poor fits give uncertain potencies.

A word on the AC50: it is the concentration at which the activity in the assay is half-maximal. For the molecule `Cc1nn(-c2ccccc2)c2[nH]c(C(F)(F)F)cc(=O)c12`, the AC50 under setting [1] was 11.2 µM [rising, partial curve].
As to `COc1cccc2c(=O)cc(C)n(CC(=O)Nc3ccc(C)c(C)c3)c12`, the AC50 is 8.91 µM [rising, partial curve] under setting [2] and 11.2 µM [rising, partial curve] under setting [1].
For `Cc1cccc(-c2cc3nc4c(c(N5CCCC(O)C5)n3n2)CCC4)c1` (stereo unspecified), the AC50 by setting is: under setting [2], 10 µM [rising, partial curve, poor fit]; under setting [1], 11.2 µM [rising, partial curve, poor fit].
As for `N#CC(C#N)=C1C=CC=CN1/C(=C\c1ccccc1)C(=O)c1cccs1`, the AC50 under setting [1] is 15.8 µM [rising, partial curve].
`Cc1nc(-c2cccnc2)sc1C(N)=O`: the AC50 under setting [2] was 3.16 µM [falling, single point] and the AC50 under setting [1] was 5.62 µM [falling, single point].
Take `COc1cccc(Cc2nc3ccccc3nc2SCC(=O)Nc2cccc(C)c2)c1`: the AC50 under setting [1] is 6.31 µM [falling, single point].
The same measure, in the same setting: the result for `Cc1ccc(CS(=O)(=O)c2ccc(C(=O)N3CCN(c4ccccn4)CC3)cc2[N+](=O)[O-])cc1` reads 1.78 µM [falling, partial curve, poor fit]; that for `COc1ccc2cc([C@H](C)C(=O)O)ccc2c1`, 2.82 nM [falling, full curve, poor fit] and 3.55 µM [rising, full curve].
For `COc1ccc(NC(=S)NC(NC(=O)/C=C/c2ccccc2)C(Cl)(Cl)Cl)cc1` (stereo unspecified), the AC50 is, setting by setting: under setting [2], 12.6 µM [falling, single point]; under setting [1], 25.1 µM [falling, single point].
For `C/C(=N\Nc1nnc(-c2ccccc2)c(-c2ccccc2)n1)c1cccc([N+](=O)[O-])c1`, the AC50 under setting [2] is 35.5 µM [falling, single point].
Take `Cc1cc(C)nc(N/N=C2/CCCC/C2=C\c2ccccc2)n1`: the half-maximal activity concentration (AC50) was 31.6 µM [rising, single point] under setting [2] and 22.4 µM [rising, single point] under setting [1].
On to `O=C(CSc1nnc2c(n1)[nH]c1ccccc12)NCc1ccco1`, for which the AC50 by setting is: under setting [2], 0.501 µM [rising, full curve, poor fit]; under setting [1], 1.12 µM [rising, full curve].
Turning to `Cc1cc(C)nc(NS(=O)(=O)c2ccc(NC(=O)c3cc(-c4ccccc4)nc4ccccc34)cc2)n1`, the AC50 by setting is: under setting [2], 31.6 µM [rising, single point]; under setting [1], 31.6 µM [rising, single point].
As for `CC(Oc1ccc(Cl)cc1Cl)C(=O)N(C)c1ccccc1` (stereo unspecified), the AC50 under setting [2] was 0.316 µM [rising, partial curve].
Turning to `CC(C)NC(=O)NC(=O)COc1ccc(Br)cc1Br`, the AC50 under setting [2] was 12.6 µM [rising, single point] and the AC50 under setting [1] was 35.5 µM [rising, single point].
Take `CCCN1CCN(c2nc(-c3cccs3)nc3ccccc23)CC1`: the AC50 reads like this: under setting [2], 11.2 µM [rising, partial curve, poor fit]; under setting [1], 22.4 µM [rising, single point].
In the case of `Cc1ccc(S(=O)(=O)N2CCC(C(=O)N3CCN(Cc4ccccc4)CC3)CC2)cc1`, under setting [1], the AC50 is 22.4 µM [rising, single point].
Regarding `CCn1cc([N+](=O)[O-])c(C(=O)Nc2c(C)nn(Cc3cccc(F)c3)c2C)n1`, under setting [2], the AC50 is 1.58 µM [rising, partial curve, poor fit].
Turning to `Cc1ccc(CN(C(=O)c2ccc(C(C)(C)C)cc2)c2ccccn2)o1`, the AC50 under setting [2] is 7.94 µM [falling, partial curve, poor fit].
`CCn1c2ccccc2c2cc(/C=N/n3c(C)nnc3C)ccc21`: the AC50 under setting [1] was 10 µM [rising, single point].
The same measure, in the same setting: the same measure for `COc1ccc(N=Cc2c(O)ccc3ccccc23)cc1`: 35.5 µM [rising, single point].
Turning to `CC(C)CC(=O)Nc1ccc2nc(SCC(=O)N3CCc4ccccc43)sc2c1`, the AC50 under setting [2] is 2.82 µM [falling, full curve, poor fit].
Consider `O=S1(=O)CC/C(=N/Nc2ccc(C(F)(F)F)cn2)c2cc(F)ccc21`, for which the AC50 under setting [1] is 3.16 µM [falling, partial curve, poor fit].
As for `COC(=O)CCc1sc(Nc2ccc(Br)cc2)nc1-c1ccc(OC)cc1`, the AC50 runs as follows: under setting [2], 25.1 µM [falling, single point]; under setting [1], 35.5 µM [falling, single point].
Turning to `CCn1ccc2cc(S(=O)(=O)N3CCCN(C(=O)Nc4ccccc4F)CC3)ccc21`, the AC50 is 0.158 µM [falling, full curve, poor fit] under setting [2] and 0.158 µM [falling, full curve, poor fit] under setting [1].
Turning to `NS(=O)(=O)c1ccc(NC(=O)COC(=O)C2(c3ccccc3F)CCCC2)cc1`, under setting [1], the AC50 is 14.1 µM [rising, partial curve, poor fit].
Same read-out and setting: the same measure for `O=C(NNC(=O)c1cccc(S(=O)(=O)N2CCc3ccccc32)c1)c1ccccc1`: 7.94 µM [rising, partial curve].
For the molecule `Cc1cccc(-n2ccnc2SCC(=O)Nc2cccc3ccccc23)c1`, the AC50 reads like this: under setting [2], 12.6 µM [falling, partial curve, poor fit]; under setting [1], 12.6 µM [falling, partial curve, poor fit].
`CCN(CC)c1ccc(C2=NNC(=O)CC2C)cc1[N+](=O)[O-]` (stereo unspecified): the AC50 runs as follows: under setting [2], 0.158 µM [falling, full curve, poor fit]; under setting [1], 0.112 µM [falling, full curve].
Consider `Cc1ccnc2nc(C(=O)OCC(=O)N(CC(C)C)CC(C)C)nn12`, for which the AC50 under setting [2] was 0.0158 µM [falling, full curve].
`Cc1ncoc1C(=O)Nc1ccccc1-c1ccccc1`: the AC50 under setting [1] is 5.62 µM [falling, single point].
Turning to `COc1ccccc1C(=O)NNC1=C(C(=O)C(F)(F)F)CCC1`, the AC50 was 0.708 µM [falling, partial curve] under setting [2] and 0.251 µM [falling, partial curve] under setting [1].
Turning to `CC1=NN(C(N)=S)C(=O)C1N=Nc1ccccc1` (stereo unspecified), the AC50 under setting [1] was 3.98 µM [falling, partial curve, poor fit].
On to `COC(=O)c1ccc(COc2ccc(-c3nnn(CC(=O)NC(C)(C)C)n3)cc2)cc1`, for which the AC50 under setting [2] is 3.16 µM [falling, partial curve].
The same measure, in the same setting: the same measure for `O=C(NO)C1CC2C=CC1C2` (stereo unspecified): 8.91 µM [falling, partial curve].
As for `C[C@@H]1C[C@H](Nc2ccccc2)c2ccccc2N1C(=O)c1cccnc1`, the AC50 by setting is: under setting [2], 0.398 µM [rising, full curve, poor fit]; under setting [1], 11.2 µM [rising, partial curve, poor fit].
Take `Oc1ccc(Cl)cc1C=Nc1ccc2c3c(cccc13)CC2`: the half-maximal activity concentration (AC50) under setting [1] is 0.794 µM [rising, full curve, poor fit].
Same read-out and setting: the result for `O=C1OCCN1C(=O)[C@H]1[C@H](c2ccc([N+](=O)[O-])cc2)C(c2cccc(Cl)c2)=NN1c1ccccc1` reads 12.6 µM [rising, partial curve, poor fit]; that for `CC(CCC(=O)Nc1nncs1)C(=O)O` (stereo unspecified), 6.31 µM [rising, full curve, poor fit].
In the case of `O=[N+]([O-])c1ccccc1/C=N\N1CCN(c2ccccc2)CC1`, the AC50 by setting is: under setting [2], 0.0355 µM [falling, full curve, poor fit]; under setting [1], 0.0224 µM [falling, full curve, poor fit].
For `Nc1nnc(SCC(=O)Nc2sc3c(c2C(=O)c2ccccc2)CCCC3)s1`, the AC50 under setting [1] was 14.1 µM [rising, single point].
As for `C=CCn1c(SC)nc2sc3c(c2c1=O)CCc1ccccc1-3`, the AC50 reads like this: under setting [2], 14.1 µM [rising, single point]; under setting [1], 22.4 µM [rising, partial curve].
Take `COc1ccc(N(Cc2nnc3n2CCCCC3)C(=O)Nc2ccccc2)cc1`: the AC50 by setting is: under setting [2], 5.01 µM [rising, partial curve, poor fit]; under setting [1], 4.47 µM [rising, single point].
Consider `Cc1cc(C)c2nc(N(Cc3cccnc3)C(=O)CCS(=O)(=O)c3ccccc3)sc2c1`, for which the AC50 under setting [2] was 1.58 µM [falling, partial curve] and the AC50 under setting [1] was 12.6 µM [falling, partial curve].
As to `S=c1[nH]nc(-c2cccs2)n1Cc1ccccc1`, under setting [2], the AC50 was 11.2 µM [rising, partial curve].
On to `Cc1cccc(-c2cc(C(=O)NCc3ccccn3)c3ccccc3n2)c1`, for which, under setting [1], the AC50 is 35.5 µM [rising, single point].
Take `CCOC(=O)c1c(NC(=O)CS(=O)(=O)c2cn(CC)c3ccccc23)sc2c1CCCCC2`: the AC50 under setting [2] was 11.2 µM [rising, single point] and the AC50 under setting [1] was 14.1 µM [rising, single point].
As to `CCOC(=O)C1=C(C)NC2=C(C(=O)c3ccccc32)C1c1ccc(O)cc1` (stereo unspecified), the half-maximal activity concentration (AC50) under setting [2] is 31.6 µM [rising, single point] and the AC50 under setting [1] was 35.5 µM [rising, single point].
On to `CCn1cc(C(=O)NCCCOC)c(=O)c2cc(S(=O)(=O)N(C)C)ccc21`, for which, under setting [1], the AC50 is 35.5 µM [rising, single point].
Turning to `CCCCc1ccc(NC(=S)NCc2ccccc2OC)cc1`, the AC50 reads like this: under setting [2], 0.794 µM [falling, partial curve, poor fit]; under setting [1], 1.26 µM [falling, partial curve].
In the case of `CCN(CC)S(=O)(=O)c1ccc(Cl)c(NC(=O)COC(=O)c2c(C)noc2C)c1`, the AC50 under setting [2] is 25.1 µM [rising, single point] and the AC50 under setting [1] was 31.6 µM [rising, single point].
Take `COc1ccc(C2C(=O)N(C3CCCCC3)CC(=O)N2CCc2ccc(C)cc2)cc1OC` (stereo unspecified): the half-maximal activity concentration (AC50) under setting [2] was 15.8 µM [falling, partial curve] and the AC50 under setting [1] is 12.6 µM [falling, partial curve, poor fit].
